Measured values as given in PubChem BioAssay AID1347076 (National Center for Advancing Translational Sciences (NCATS), 2019).
The campaign covered roughly 400,000 compounds. About 13,000 (3.2%) were called active. Inconclusive results, whose numbers are uncertain, are shown with a selection of clear calls. The call rests on the fitted dose curve; in most records, active means well fitted cell-killing curve with a large enough effect; inconclusive means small, poorly fitted or top-dose-only effect, or effect the other way; inactive means flat fitted curve, though single readings scatter. Where the call is inconclusive, the potency comes from a doubtful curve fit.

Assay: qHTS assay for MDR1-selective chemotherapeutics: Primary screen using the drug-selected MDR subline cells KB-V1; further: nearly all actives have a fitted effect of over 60% in size
Conditions: KB-V1 MDR cells viability, CellTiter-Glo, 72 h; activity change, negative = cytotoxicity: at 46.1 µM (top of the series)
In short: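 Potencies derive from concentration-effect curves fitted to normalized luminescence (CellTiter-Glo) of KB-V1 cells treated for 72 h at 37 degrees C in phenol-red-free DMEM containing 10% FBS.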
On the % scale 0 is the no-effect control and ±100 the full control effect; potency means the concentration at half of the fitted maximal effect.

SMILES | Potency | activity change, negative = cytotoxicity
CCOc1ccc(CNC(=O)C2CCCN(S(=O)(=O)N3CCC(C)CC3)C2)cc1OC (configuration not stated) | inconclusive: 8.2 µM [cytotoxic, partial curve] | –
S=c1[nH]nc(-c2ccc(Cl)cc2)n1Cc1ccccc1 | inconclusive: 20.6 µM [cytotoxic, single point] | –
CSc1ccc(S(=O)(=O)N2CCC(C(=O)NCc3ccccn3)CC2)cc1 | inconclusive: 14.6 µM [rising, single point] | –
O=C(CNC(=S)N(CCCN1CCOCC1)Cc1cccs1)N1CCCC1 | inconclusive: 11.6 µM [cytotoxic, partial curve, poor fit] | –
CSCC[C@H](NC(=O)OC(C)(C)C)C(=O)N1CCC(C(=O)NCC(=O)Nc2ccc(C)cc2)CC1 | – | inactive: -11.4%
COC(=O)c1ccc2c(=O)[nH]c(COC(=O)c3c(-c4ccccc4Cl)noc3C)nc2c1 | inconclusive: 29.1 µM [cytotoxic, single point] | –
CCC/C=N/NC(=O)c1ccccc1O | inconclusive: 7.31 µM [rising, partial curve] | –
O=C(Nc1ccc(F)cc1)c1cc2c(s1)CCCC2 | inconclusive: 25.9 µM [cytotoxic, single point] | –
CCOC(=O)N1CCN(c2nc3ccccc3nc2C(C#N)S(=O)(=O)c2ccc(C)cc2)CC1 (configuration not stated) | active: 3.66 µM | –
O=c1c2ccccc2nc(SCc2ccncc2)n1CC1CCCO1 (configuration not stated) | inconclusive: 13 µM [cytotoxic, partial curve, poor fit] | –
COC(=O)[C@H](C)NC(=O)NCc1ccccc1 | – | inactive: 17.4%
O=[N+]([O-])c1ccccc1NS(=O)(=O)c1ccccc1 | – | inactive: -4.16%
CN(C)S(=O)(=O)N1CCC(Oc2cccc(C(=O)NC3CCCCC3)c2)CC1 | inconclusive: 1.64 µM [cytotoxic, full curve, poor fit] | –
Cc1cc2ccccc2n1CCNC(=O)c1ccc(S(=O)(=O)N2CCCCC2)cc1 | inconclusive: 29.1 µM [rising, single point] | –
O=C1/C(=C/c2cccnc2)CCC/C1=C\c1cccnc1 | active: 3.26 µM | –
CN(Cc1ccc(F)cc1)C(=O)c1cccc(OCc2ccccc2)c1 | inconclusive: 16.4 µM [cytotoxic, partial curve] | –
CNc1oc(-c2ccccc2F)nc1S(=O)(=O)c1ccc(C)cc1 | inconclusive: 7.31 µM [cytotoxic, partial curve] | –
Cc1ccccc1-n1c(SCC(=O)Nc2ccc3c(c2)OCO3)nnc1-c1ccccn1 | active: 2.06 µM | –
NNC(=O)c1ccc2[nH]c3c(c2c1)CCCC3 | inconclusive: 20.6 µM [rising, single point] | –
Cc1nc(-c2ccc(S(=O)(=O)NCc3ccccn3)s2)cs1 | inconclusive: 16.4 µM [cytotoxic, partial curve] | –
CCC(C)c1ccc(NC(=O)CN(C)CC(=O)Nc2cccc(OC)c2)cc1 (configuration not stated) | inconclusive: 29.1 µM [rising, single point] | –

SMILES | Potency | activity change, negative = cytotoxicity
COC(=O)C1(C)CN(S(=O)(=O)c2ccc(C)cc2)c2cc(OC)ccc2C1=O (configuration not stated) | inconclusive: 10.3 µM [cytotoxic, partial curve, poor fit] | –
CSc1ccccc1NC(=O)Cn1c(-c2cscn2)nc2ccccc21 | active: 16.4 µM | –
CC(OC(=O)c1nc(Cl)ccc1Cl)C(=O)NC1CCCCC1C (configuration not stated) | inconclusive: 25.9 µM [rising, single point] | –
O=C(CCCc1cccs1)Nc1nc2c(s1)CCCC2 | inconclusive: 29.1 µM [cytotoxic, single point] | –
COc1cc(/C=C/C(=O)O)cc(S(=O)(=O)Nc2cc(C(F)(F)F)ccc2N2CCOCC2)c1OC | inconclusive: 11.6 µM [rising, single point] | –
COC(=O)[C@@]12C[C@@H](CC(=O)N3CCOCC3)C(=O)N(Cc3ccc4c(c3)OCO4)C1=CCC(C)(C)C2 | inconclusive: 2.59 µM [cytotoxic, full curve, poor fit] | –
O=C(NC1=NCCS1)c1cccc2ccccc12 | – | inactive: -3.46%
Cn1c(=O)c2c(SCC(=O)NCC3CCCO3)nc(-c3cccc(F)c3)nc2n(C)c1=O (configuration not stated) | – | inactive: 0%
COC(=O)[C@@]12C[C@@H](CC(=O)NCc3ccccc3)C(=O)N(Cc3ccccc3)C1=CCC(C)(C)C2 | active: 20.6 µM | –
O=c1[nH]cc(C=NNc2ccccc2)c(=O)[nH]1 | – | inactive: 2.86%
O=C(Nc1ccc2c(c1)OCCO2)c1cccc2nc3ccccc3nc12 | active: 6.51 µM | –
CCOC(=O)N1CCC(NC(=O)c2cc(S(=O)(=O)N3CCCC3)cn2C)CC1 | inconclusive: 20.6 µM [cytotoxic, partial curve, poor fit] | –
Cc1ccc(S(=O)(=O)N2CCN(C3CC(=O)N(Cc4ccccc4)C3=O)CC2)cc1C (configuration not stated) | inconclusive: 13 µM [cytotoxic, partial curve] | –
Cc1nc(C)c(-c2csc(Nc3cccnc3)n2)s1 | active: 3.26 µM | –
CCN(c1ccccc1)S(=O)(=O)c1ccc(OC)c(NC(=O)CNCCc2ccccc2)c1 | inconclusive: 29.1 µM [cytotoxic, single point] | –
COc1ccc(Cl)cc1Cn1c(C)c(C(=O)NCc2ccccc2C(F)(F)F)sc1=O | inconclusive: 23.1 µM [cytotoxic, partial curve] | –
CN(C)c1cccc(C(=O)N2CCCC(C(=O)c3cc(F)ccc3F)C2)c1 (configuration not stated) | inconclusive: 13 µM [cytotoxic, partial curve, poor fit] | –
CCC(C(=O)OCc1csc(CC(=O)Nc2ccccc2C)n1)c1ccccc1 (configuration not stated) | inconclusive: 29.1 µM [cytotoxic, single point] | –
COc1ccccc1N1CCN(C(=O)C2CCN(C(=O)c3cccc(Cl)c3)CC2)CC1 | – | inconclusive: -31.6% [cytotoxic]
CN(C)c1ccc(N=Nc2ccccc2C(=O)OCC(=O)NC2CCCC2)cc1 | inconclusive: 23.1 µM [cytotoxic, single point] | –
COc1ccc(CN(C)C[C@H]2OCc3cnnn3CCCC(=O)N([C@H](C)CO)C[C@@H]2C)cc1 | inconclusive: 0.259 µM [cytotoxic, full curve, poor fit] | –

3 entries already listed, arranged by number of heavy atoms, ascending:
SMILES | Potency | activity change, negative = cytotoxicity
CCOC(=O)N1CCC(NC(=O)c2cc(S(=O)(=O)N3CCCC3)cn2C)CC1 | inconclusive: 20.6 µM [cytotoxic, partial curve, poor fit] | –
COc1ccc(Cl)cc1Cn1c(C)c(C(=O)NCc2ccccc2C(F)(F)F)sc1=O | inconclusive: 23.1 µM [cytotoxic, partial curve] | –
COc1ccc(CN(C)C[C@H]2OCc3cnnn3CCCC(=O)N([C@H](C)CO)C[C@@H]2C)cc1 | inconclusive: 0.259 µM [cytotoxic, full curve, poor fit] | –
